Experimental findings from patent US4474762A (Bayer Aktiengesellschaft, priority 1981, dated 1984) are described below.

This series can be described thus: general procedure: peptide synthesis; N-hydroxysuccinimide esters. Conditions: coupling step.

Substance “N-Glycyl-glycyl derivative of component B” had a step yield of 60.3%.
